According to patent publication US20230009366A1, “Using Alternating Electric Fields at Different Frequencies to Increase Permeability of the Blood Brain Barrier and also to Provide Other Benefits” (Novocure GmbH, priority 2021, published 2023):
At least one compound was matched to its structure with a doubt left.

System: U87-MG/eGFP-fLuc cells
Assay: Ethidium D uptake under TTFields
Format: cell-based, human
Settings: 200 kHz TTFields vs no TTFields, p<0.0001

**Q.** For `CC[n+]1c(-c2ccccc2)c2cc(N)ccc2c2ccc(N)cc21` [ethidium D, ethidium bromide], which “ethidium D uptake” value is on record?
**A.** significantly increased
